Some results were stated once for a whole list of compounds, not compound by compound.
Legend:
Type in all cases: in vivo
[1] = tested on: green peach aphid (Myzus persicae); test: Myzus persicae test (MYZUPE spray treatment); conditions: application rate 500 g/ha, Chinese cabbage leaf discs sprayed, after 6 days
Protocol: Myzus persicae Test (MYZUPE Spray Treatment)
Solvent: 78.0 parts by weight of acetone • • 1.5 parts by weight of dimethylformamide Emulsifier: 0.5 part by weight of alkylaryl polyglycol ether
To produce a suitable preparation of active compound, 1 part by weight of active compound is mixed with the stated amounts of solvent and emulsifier, and the concentrate is diluted with emulsifier-containing water to the desired concentration.
Discs of Chinese cabbage (Brassica pekinensis) infected by all stages of the green peach aphid (Myzus persicae) are sprayed with an active compound preparation of the desired concentration.
After 6 days, the effect in % is determined. 100% means that all of the aphids have been killed; 0% means that none of the aphids have been killed.

[2] = tested on: larvae of the mustard beetle (Phaedon cochleariae); test: Phaedon cochleariae test (PHAECO spray treatment); conditions: application rate 500 g/ha, Chinese cabbage leaf discs sprayed, after 7 days
[3] = tested on: caterpillars of the armyworm (Spodoptera frugiperda); test: Spodoptera frugiperda test (SPODFR spray treatment); conditions: application rate 500 g/ha, maize leaf discs sprayed, after 7 days
Boophilus microplus = Boophilus microplus test (BOOPMI injection); conditions: 20 μg/animal, injection into the abdomen
[4] = tested on: adult fleas (Ctenocephalides felis); test: Ctenocephalides felis; oral (CTECFE); conditions: 100 ppm in citrated cattle blood, oral uptake
Lucilia cuprina larvae = test: Lucilia cuprina test (LUCICU); conditions: 100 ppm, treated horse meat

Cc1ncc(CNC(=O)c2ccc(-n3nc(C(F)(F)F)c(-c4cc(Cl)cc(Cl)c4)c3N)cc2C)c(N)n1 [I-A-Q2-053]
> 80%: effect in % (aphids killed) [1] | effect in % (beetle larvae killed) [2] | effect in % (caterpillars killed) [3]

CC(NC(=O)c1ccc(-n2nc(C(F)(F)F)c(-c3cc(Cl)cc(Cl)c3)c2N)cc1)C(F)(F)F (stereo not drawn) [I-A-Q2-133]
> 80%: effect in % (aphids killed) [1] | effect in % (beetle larvae killed) [2] | effect in % (caterpillars killed) [3]

Nc1c(-c2cc(Cl)cc(Cl)c2)c(C(F)(F)F)nn1-c1ccc(C(=O)NCc2ccccn2)cc1 [I-A-Q2-134]
> 80%: effect in % (no fertile eggs laid) (Boophilus microplus) | kill in % (fleas) [4] | effect in % (aphids killed) [1] | effect in % (beetle larvae killed) [2] | kill in % (larvae) (Lucilia cuprina larvae)

CC(NC(=O)c1ccc(-n2nc(C(F)(F)F)c(-c3ccc(Br)cc3)c2N)cc1)c1ccccn1 (stereo not drawn) [I-A-Q2-192]
> 80%: effect in % (aphids killed) [1]

— patent US20110190365A1, “Insecticidal 4-phenyl-1H-pyrazoles” (Bayer Crop Science AG, priority 2008, published 2011)
